The values below come from paper PMC12339391.

The chains behind the UniProt entries cited, without tags or fusion partners. Where a name states a change or a piece, a line headed by the entry shows the natural chain unless it says otherwise.
UniProt Q5I0X4: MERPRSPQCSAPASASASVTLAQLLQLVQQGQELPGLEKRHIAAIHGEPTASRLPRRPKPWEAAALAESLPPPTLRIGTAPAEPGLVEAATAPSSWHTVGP
UniProt P09110: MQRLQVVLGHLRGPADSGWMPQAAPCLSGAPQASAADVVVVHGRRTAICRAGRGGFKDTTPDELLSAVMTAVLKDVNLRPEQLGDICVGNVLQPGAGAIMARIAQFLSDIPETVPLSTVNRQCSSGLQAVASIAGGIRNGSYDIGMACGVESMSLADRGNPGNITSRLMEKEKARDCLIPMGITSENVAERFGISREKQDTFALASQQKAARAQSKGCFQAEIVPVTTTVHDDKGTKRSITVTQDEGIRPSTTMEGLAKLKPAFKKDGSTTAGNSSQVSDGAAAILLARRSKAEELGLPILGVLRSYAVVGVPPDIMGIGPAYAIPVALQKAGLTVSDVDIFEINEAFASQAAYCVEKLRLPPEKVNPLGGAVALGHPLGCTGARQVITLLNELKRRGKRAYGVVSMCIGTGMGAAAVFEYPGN
UniProt O14832: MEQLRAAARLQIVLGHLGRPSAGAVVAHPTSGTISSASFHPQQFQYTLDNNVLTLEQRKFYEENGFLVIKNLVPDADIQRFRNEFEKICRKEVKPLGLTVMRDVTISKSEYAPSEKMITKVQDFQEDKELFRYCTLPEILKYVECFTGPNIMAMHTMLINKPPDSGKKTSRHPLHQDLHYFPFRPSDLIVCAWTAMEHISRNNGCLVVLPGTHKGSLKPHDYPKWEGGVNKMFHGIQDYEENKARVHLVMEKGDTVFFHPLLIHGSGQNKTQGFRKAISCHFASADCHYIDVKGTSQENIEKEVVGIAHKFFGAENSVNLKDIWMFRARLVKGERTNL
UniProt O00116: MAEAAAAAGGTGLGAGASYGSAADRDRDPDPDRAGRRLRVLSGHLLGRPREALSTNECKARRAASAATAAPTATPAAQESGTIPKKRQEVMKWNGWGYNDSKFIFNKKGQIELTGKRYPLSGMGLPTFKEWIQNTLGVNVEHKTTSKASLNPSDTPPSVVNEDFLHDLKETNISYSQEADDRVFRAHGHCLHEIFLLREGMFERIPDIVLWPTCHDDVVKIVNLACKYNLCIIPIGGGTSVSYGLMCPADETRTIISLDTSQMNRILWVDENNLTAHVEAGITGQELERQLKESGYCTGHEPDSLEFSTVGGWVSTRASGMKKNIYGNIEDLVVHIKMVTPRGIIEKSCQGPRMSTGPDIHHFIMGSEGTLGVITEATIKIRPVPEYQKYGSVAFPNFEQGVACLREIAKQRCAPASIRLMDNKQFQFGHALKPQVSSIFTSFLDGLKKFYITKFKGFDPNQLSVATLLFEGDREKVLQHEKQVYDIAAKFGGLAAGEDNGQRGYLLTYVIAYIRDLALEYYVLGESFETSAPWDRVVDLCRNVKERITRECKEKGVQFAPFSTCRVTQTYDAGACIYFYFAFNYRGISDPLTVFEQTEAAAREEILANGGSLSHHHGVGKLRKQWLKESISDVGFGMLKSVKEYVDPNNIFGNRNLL
UniProt Q92968: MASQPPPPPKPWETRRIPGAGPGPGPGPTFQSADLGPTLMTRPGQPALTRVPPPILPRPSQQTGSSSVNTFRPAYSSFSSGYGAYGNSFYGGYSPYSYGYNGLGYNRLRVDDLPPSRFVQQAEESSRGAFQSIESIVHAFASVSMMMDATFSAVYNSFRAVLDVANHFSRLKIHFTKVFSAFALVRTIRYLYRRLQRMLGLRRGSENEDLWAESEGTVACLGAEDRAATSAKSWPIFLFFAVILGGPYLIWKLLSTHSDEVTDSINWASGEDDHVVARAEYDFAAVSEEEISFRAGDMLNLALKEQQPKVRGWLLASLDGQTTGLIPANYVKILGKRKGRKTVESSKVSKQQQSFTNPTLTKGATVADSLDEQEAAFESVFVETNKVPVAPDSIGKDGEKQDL

Holding throughout (experiment): co-IP; anti-FLAG M2 magnetic beads; lysates of HCT116 or HEK293T cells stably expressing the FLAG-HA-tagged bait; 50 mM Tris-HCl pH 7.5, 150 mM NaCl, 0.5% NP-40 alternative, 1 mM DTT, 4 h at 4 °C; washes with 400 mM NaCl; immunoblot of endogenous prey
On the technique in general: Immunoblotting shows a protein as a band on a membrane.

Test [1] addresses HsPEX39-FLAG-HA (C-terminally FLAG-HA-tagged human PEX39) (human) (UniProt Q5I0X4).
Test [2] concerns the target T1, PEX7-FLAG-HA (C-terminally FLAG-HA-tagged human PEX7) (human) (UniProt O00628).
T1 sequence: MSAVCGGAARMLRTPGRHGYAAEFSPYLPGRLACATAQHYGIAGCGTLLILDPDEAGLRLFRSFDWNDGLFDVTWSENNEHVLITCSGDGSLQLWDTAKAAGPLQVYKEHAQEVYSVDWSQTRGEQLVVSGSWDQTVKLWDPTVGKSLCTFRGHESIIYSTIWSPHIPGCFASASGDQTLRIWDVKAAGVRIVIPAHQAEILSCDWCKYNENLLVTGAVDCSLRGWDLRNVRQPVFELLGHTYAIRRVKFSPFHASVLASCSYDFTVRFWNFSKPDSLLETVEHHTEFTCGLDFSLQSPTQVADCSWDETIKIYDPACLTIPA

Test [3] deals with T2, PEX7(E77A)-FLAG-HA (human) (UniProt O00628).
T2 sequence: T1 sequence with E77A

The target of test [4] is ACAA1-FLAG-HA (C-terminally FLAG-HA-tagged human ACAA1) (human) (UniProt P09110).
Test [5] deals with PHYH-FLAG-HA (C-terminally FLAG-HA-tagged human PHYH) (human) (UniProt O14832).

Changes are numbered by the printed parent chain. Results are given in words; binding and its absence hold for the method and conditions named. Binding seen in cells or lysates may run through a third protein. Binding can be weak; no strength is given. For some assays here: Sequences can lack the tags named with a protein.

As for “endogenous ACAA1 (precursor form) (from UniProt P09110)”, the binding result in test [1] and in test [2] was “binds” in each case.

Take “endogenous AGPS (precursor form) (from UniProt O00116)”: the binding result in test [1], in test [3] and in test [2] was “binds” in each case.

For “endogenous HsPEX13 (from UniProt Q92968 1-403)”, the binding result in test [4] and in test [5] was “binds” in each case.

Take “endogenous HsPEX39 (C6ORF226) (from UniProt Q5I0X4 1-101)”: in test [4], the binding result is “binds”.
